# Results from PubChem BioAssay AID493014 (National Center for Advancing Translational Sciences (NCATS), 2011).
# Some of the results follow. The main result of the screen is listed elsewhere. These columns were measured beside it and carry no call. Most of these compounds were active or inconclusive in the main read-out, so they are no random draw. The note in brackets gives the kind of curve behind each potency; many fits are weak.
# Assay: qHTS Assay to Find Inhibitors of Chronic Active B-Cell Receptor Signaling
# Settings: ABC-DLBCL IkBa-CBG/CBR reporter, luminescence ratio (green luciferase fused to IkBa over red control in TMD8 lymphoma cells), 4 h
# Outline: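 Cell line TMD8 (human ABC DLBCL), stably expressing tet-inducible CBG68-IkBa fusion and CBR; IMDM/0.5% FBS; cpd up to 46 uM; dox induction, 4 h, 37C/5% CO2; dual luminescence; green/red ratio; MG132 control.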
# [1] = measured here: CBR red luminescence, cell number
# [2] = measured here: IkBa-CBG green luminescence
Structure (SMILES),AC50 [1],AC50 [2]
Cc1cnc(C(=O)OCC(=O)Nc2ccc(C)c(S(=O)(=O)N(C)C)c2)cn1,"4.47 µM [rising, partial curve]",–
CSc1ccc(CC(=O)N2CCC(n3nccc3NC(=O)C3CC3)CC2)cc1,"25.1 µM [rising, partial curve, poor fit]",–
NC(=O)c1nn(-c2ccccc2)nc1N,"0.92 µM [falling, full curve, poor fit]",–
CC(C)=NNc1nc2sc3c(c2c(=O)[nH]1)CC(C)(C)OC3,"4.11 µM [rising, partial curve, poor fit]",–
O=C(COc1ccccc1)N1CCN=C1SCc1ccc(F)cc1,"5.01 µM [falling, partial curve, poor fit]",–
O=C(NNc1ccccc1)/C(=C\c1cccnc1)NC(=O)c1ccccc1,"35.5 µM [rising, single point]",–
COc1ccc(C(C)NC(=S)NC2CCCC2)cc1OC (centres undefined),"5.17 µM [falling, partial curve, poor fit]",–
N#Cc1nc(-c2ccc(OCc3ccccc3)cc2)oc1NCc1ccco1,"3.55 µM [rising, partial curve, poor fit]",–
O=C(NC1CC1)c1sc2cc([N+](=O)[O-])ccc2c1Cl,"7.31 µM [rising, partial curve, poor fit]",–
COc1ccc(CC(=O)c2ccc(OC)c(OC)c2)cc1,"2.59 µM [rising, partial curve, poor fit]",–
COc1cc(/C=C2\SC(=Nc3c(C)n(C)n(-c4ccccc4)c3=O)NC2=O)ccc1O,"4.11 µM [rising, single point]",–
Cc1ccc(C2OC34CCCCCC3C(C#N)(C(=N)O4)C2(C#N)C#N)cc1 (centres undefined),"18.4 µM [falling, partial curve]",–
COC(=O)c1sc(NC(=O)c2cc(C)on2)nc1C,"10 µM [falling, partial curve]",–
Cc1ccsc1/C=N/n1c(C2CCCCC2)n[nH]c1=S,"23.1 µM [rising, single point]",–
O=C(Nc1ccc(-c2cn3ccsc3n2)cc1)c1ccc(F)c(S(=O)(=O)N2CCOCC2)c1,"29.1 µM [falling, single point]",–
Cc1ccc(-c2nc(CS(=O)CC(=O)NCc3ccc(Cl)cc3)c(C)o2)cc1 (centres undefined),"0.411 µM [rising, full curve, poor fit]",–
O=C(Nc1ccc2c(c1)OCO2)c1cccc(Cl)c1,"18.4 µM [falling, single point]",–
Cc1cc(NC(=O)c2ccco2)ccc1NC(=O)c1ccco1,"44.7 µM [rising, partial curve, poor fit]",–
CC1CN(C(=S)Nc2ccc(Cl)cc2)CC(C)O1 (centres undefined),"20 µM [rising, single point]",–
COC(=O)c1cc(S(=O)(=O)N2CCN(c3ccc([N+](=O)[O-])cc3)CC2)c[nH]1,"5.01 µM [falling, full curve]",–
CCOC(=O)c1ccc(NC(=O)CC2COc3ccccc3O2)cc1 (centres undefined),"18.4 µM [rising, single point]",–

Structure (SMILES),AC50 [1],AC50 [2]
Cc1cc(C)nc(NC(=O)C(c2ccccc2)c2ccccc2)n1,"2.51 µM [falling, full curve, poor fit]",–
Cc1cc(C(F)(F)F)n2ncc(-c3ccc(F)cc3)c2n1,"0.731 µM [rising, full curve, poor fit]",–
COc1ccc(CC(=O)OCC(=O)c2c[nH]c3ccccc23)cc1,"5.8 µM [rising, partial curve, poor fit]","29.1 µM [falling, partial curve, poor fit]"
CC(OC(=O)c1ccncc1)C(=O)Nc1cc(S(=O)(=O)N2CCCCC2)ccc1Cl (centres undefined),"0.461 µM [rising, partial curve, poor fit]",–
CCCCn1nc2cc(C(=O)NCc3ccccc3)ccc2c1OCC,"0.1 µM [rising, full curve, poor fit]",–
O=S(=O)(NCc1csc(-c2cccs2)n1)c1ccccc1,"3.16 µM [rising, partial curve, poor fit]",–
O=C(COC(=O)c1ccc2c(c1)S(=O)(=O)N=C1CCCCCN12)NCc1cccs1,"0.112 µM [rising, full curve, poor fit]",–
CC(C)c1cccc(C(C)C)c1OC(=O)NC(=O)c1c(F)cccc1F,"10 µM [falling, partial curve, poor fit]",–
COCC(=O)Nc1cc(Cl)ccc1C(F)(F)F,"2 µM [rising, partial curve]",–
CCCCCOc1ccc(/C(C)=N/NC2=NCCN2)cc1,"35.5 µM [falling, single point]",–
CC1CCc2sc(-c3n[nH]c(=S)o3)cc2C1 (centres undefined),"20 µM [falling, single point]",–
CCCc1nc(SCC(=O)N2CCc3ccccc32)c2c(=O)n(C)c(=O)n(C)c2n1,"36.6 µM [rising, partial curve, poor fit]",–
COC(=O)Cc1c(C)c2ccc(OCC(=O)N(C)C)cc2oc1=O,"29.1 µM [rising, single point]",–
COc1ccccc1OCCC(=O)OCC(=O)Nc1ccc(Br)cc1F,"10 µM [falling, partial curve]",–
Cc1occc1-c1nnc(SCC(=O)N2CCOCC2)n1CC(C)C,"6.51 µM [rising, partial curve, poor fit]",–
CC(NC(=O)c1cc2c(s1)CCCC2)C(C)(C)C (centres undefined),"6.51 µM [falling, single point]",–
O=C(OC1CCOC1=O)c1ccccc1C(=O)c1ccc(Cl)c([N+](=O)[O-])c1 (centres undefined),"0.92 µM [falling, full curve, poor fit]",–
O=C(COc1ccc(S(=O)(=O)N2CCCC2)cc1Cl)NCc1ccccn1,"12.6 µM [rising, single point]",–
O=C(NCCC1=CCCCC1)C1CCCN(S(=O)(=O)c2ccccc2)C1 (centres undefined),"32.6 µM [falling, single point]",–
CC1(C)CC(=O)C2=C(C1)Oc1nc3ccccc3cc1C2C(C#N)C#N (centres undefined),"6.31 µM [falling, full curve]",–
COc1cccc(C(=O)N2CCN(Cc3cc(Br)ccc3OC)CC2)c1,"23.1 µM [falling, partial curve, poor fit]",–

Structure (SMILES),AC50 [1],AC50 [2]
O=C(O)c1ccc(CSc2nnc(-c3ccco3)o2)cc1,–,"16.4 µM [falling, partial curve]"
CCCOc1ccc(C(CC(=O)O)NC(=O)c2sc3ccccc3c2Cl)cc1 (centres undefined),"11.2 µM [falling, partial curve, poor fit]",–
CCC(CC)COC(=O)C1=C(C)NC(=O)NC1c1ccc(N(C)C)cc1 (centres undefined),"35.5 µM [rising, single point]",–
O=C(N/C(=C\c1cccnc1)c1nc2ccccc2[nH]1)c1cccc(Br)c1,"23.1 µM [rising, partial curve, poor fit]","23.1 µM [falling, partial curve, poor fit]"
Cn1c(N)c(C(=O)COC(=O)Cc2cccs2)c(=O)n(C)c1=O,"1.03 µM [falling, partial curve, poor fit]",–
Cc1ccc(NC(=O)CSc2nc(NS(=O)(=O)c3ccc(C)cc3)cc(=O)[nH]2)cc1,"6.51 µM [falling, partial curve, poor fit]",–
O=C1CC(C(=O)N2CCCc3ccccc32)CN1c1ccc(F)cc1 (centres undefined),"3.16 µM [rising, partial curve, poor fit]",–
CC1(C)CC(=O)C(C=Nc2ccc(C(=O)c3ccccc3)cc2N=CC2=C(O)CC(C)(C)CC2=O)=C(O)C1,"35.5 µM [falling, single point]",–
O=C(Nc1cc(Cl)ccc1O)c1cc(-c2ccco2)on1,"11.2 µM [falling, partial curve, poor fit]",–
Cc1nc(SCc2nc3ccc(C(F)(F)F)cc3[nH]2)c2oc3ccccc3c2n1,"3.66 µM [rising, single point]",–
CC(C)(CNC(=O)CCNC(=O)c1ccc(Br)cc1)N1CCOCC1,"23.1 µM [rising, partial curve, poor fit]",–
COc1ccc(C(=O)N2CC3(CC(c4cccc(NC(=O)COc5ccc(Cl)cc5)c4)=NO3)C[C@@H]2C(N)=O)cc1 (some centres undefined),"22.4 µM [falling, single point]",–
CCN(CC)CC(C)(C)COC(=O)c1oc2ccccc2c1C,"3.98 µM [rising, partial curve, poor fit]",–
COC(=O)c1c(NC(=S)NN2CCN(C)CC2)sc2c1CCC(C)C2 (centres undefined),"35.5 µM [falling, single point]",–
CC(=O)Nc1ccc(NC(=O)C(C)OC(=O)c2ccc(C)s2)cc1 (centres undefined),"25.1 µM [rising, partial curve, poor fit]",–
CCCCN(C(=O)c1cnccn1)c1c(N)n(CCC)c(=O)[nH]c1=O,"3.26 µM [rising, single point]",–
NC(=O)NC(=O)C(c1ccccc1)N1CCN(S(=O)(=O)Cc2ccccc2)CC1 (centres undefined),"23.1 µM [rising, partial curve]",–
CCOC(=O)c1sc2nc(SCC(=O)N(CC)CC)n(CCCN3CCCC3=O)c(=O)c2c1C,"20 µM [falling, partial curve]",–
O=C(Nc1nc2c(s1)CN(Cc1ccccc1)CC2)c1c(F)cccc1F,"11.2 µM [rising, single point]",–
CC1C/C(=N\NC(=O)c2ccc(NS(=O)(=O)c3ccc(Br)cc3)cc2)CC(C)(C)C1 (centres undefined),"14.6 µM [falling, partial curve, poor fit]",–

# 5 consecutive compounds out of the list so far:
Structure (SMILES),AC50 [1],AC50 [2]
COc1ccc(C(=O)N2CC3(CC(c4cccc(NC(=O)COc5ccc(Cl)cc5)c4)=NO3)C[C@@H]2C(N)=O)cc1 (some centres undefined),"22.4 µM [falling, single point]",–
CCN(CC)CC(C)(C)COC(=O)c1oc2ccccc2c1C,"3.98 µM [rising, partial curve, poor fit]",–
COC(=O)c1c(NC(=S)NN2CCN(C)CC2)sc2c1CCC(C)C2 (centres undefined),"35.5 µM [falling, single point]",–
CC(=O)Nc1ccc(NC(=O)C(C)OC(=O)c2ccc(C)s2)cc1 (centres undefined),"25.1 µM [rising, partial curve, poor fit]",–
CCCCN(C(=O)c1cnccn1)c1c(N)n(CCC)c(=O)[nH]c1=O,"3.26 µM [rising, single point]",–
